Measured values from patent publication US20220152228A1, “COMPOSITIONS AND METHODS FOR RADIOTHERAPY USING CHELATED RADIOTHERAPEUTIC AGENTS AND NON-TARGET TISSUE BLOCKADE” (Washington University, priority 2019, published 2022).

Experiment: Radiolabeling of chelator with 223Ra monitored by radioTLC
Format: physicochemical
Settings: room temperature, pH 6; for radiolabeling efficiency (RL): 223Ra

| SMILES | macropa concentration at RL50% (after 5 min of reaction) [µM] | macropa concentration necessary to reach RL over 80% (after 5 min of reaction) [µM] | radiolabeling efficiency (RL) |
| --- | --- | --- | --- |
| O=C(O)c1cccc(CN2CCOCCOCCN(Cc3cccc(C(=O)O)n3)CCOCCOCC2)n1 [macropa] | 13 | 18 | – |
| O=C(O)CN1CCN(CC(=O)O)CCN(CC(=O)O)CCN(CC(=O)O)CC1 [DOTA, 1,4,7,10-Tetraazacyclododecane-1,4,7,10-tetraacetic acid] | – | – | does not coordinate radium |
| O=C([O-])c1cccc(CN2CCOCCOCCN(Cc3cccc(C(=O)[O-])n3)CCOCCOCC2)n1.[223Ra+2] [[(^223Ra)macropa]] | – | – | exceeded 95% |
